Source: US12221406B2, “Compounds as NLRP3 inflammasome inhibitors and compositions and uses thereof” (VIRGINIA COMMONWEALTH UNIVERSITY, priority 2019, dated 2025)
At least one compound was matched to its structure with a doubt left.

Amino acid sequences for entries named in this document (tags omitted).
UniProt Q8R4B8, whole entry: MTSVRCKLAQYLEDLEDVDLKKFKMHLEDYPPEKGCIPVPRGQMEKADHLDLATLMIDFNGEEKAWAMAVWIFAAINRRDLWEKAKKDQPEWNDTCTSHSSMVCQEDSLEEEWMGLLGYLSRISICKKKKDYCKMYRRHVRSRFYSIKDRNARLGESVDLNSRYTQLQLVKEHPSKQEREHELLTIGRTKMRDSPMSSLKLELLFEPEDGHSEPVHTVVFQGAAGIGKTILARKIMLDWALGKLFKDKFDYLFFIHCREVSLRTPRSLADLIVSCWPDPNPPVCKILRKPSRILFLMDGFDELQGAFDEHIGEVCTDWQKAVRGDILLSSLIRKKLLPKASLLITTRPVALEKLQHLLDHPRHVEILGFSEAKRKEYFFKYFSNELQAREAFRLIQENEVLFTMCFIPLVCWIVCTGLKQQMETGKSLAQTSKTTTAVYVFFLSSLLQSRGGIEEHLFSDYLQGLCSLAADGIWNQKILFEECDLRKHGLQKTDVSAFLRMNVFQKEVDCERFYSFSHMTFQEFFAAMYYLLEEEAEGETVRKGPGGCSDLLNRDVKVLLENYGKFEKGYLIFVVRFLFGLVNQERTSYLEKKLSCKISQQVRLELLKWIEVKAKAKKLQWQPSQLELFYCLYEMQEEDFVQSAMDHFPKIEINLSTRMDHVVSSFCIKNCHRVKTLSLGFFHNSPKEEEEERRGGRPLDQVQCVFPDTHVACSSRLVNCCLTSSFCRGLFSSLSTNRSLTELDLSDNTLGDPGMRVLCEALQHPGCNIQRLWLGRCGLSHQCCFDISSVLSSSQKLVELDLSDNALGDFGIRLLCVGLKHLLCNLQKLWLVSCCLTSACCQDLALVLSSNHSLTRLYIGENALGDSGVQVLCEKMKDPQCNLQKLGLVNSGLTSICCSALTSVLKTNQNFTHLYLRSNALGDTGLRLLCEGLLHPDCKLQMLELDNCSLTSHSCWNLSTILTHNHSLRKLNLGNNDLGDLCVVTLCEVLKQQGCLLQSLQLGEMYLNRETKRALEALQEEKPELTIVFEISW

Molecular target: NLRP3 inflammasome (Mus musculus, UniProt Q8R4B8)
Assay: IL-1β release from J774A.1 cells upon LPS/ATP stimulation (ELISA)
Conditions: comparator as named

Structure (SMILES): C#CCNS(=O)(=O)c1ccc(CCN(Cc2cc(Cl)ccc2OCCC)C(=O)C=C)cc1 [SZ-N3I-34, N-(5-chloro-2-propoxybenzyl)-N-(4-(N-(prop-2-yn-1-yl)sulfamoyl)phenethyl)acrylamide]
- inhibitory potency relative to the parent analog (SAR statement): led to improvement of inhibitory potency
